This passage reports binding results from article PMC11806102.

Sequences of proteins named here, by UniProt entry; tags and fusion partners are left off. Residues count along the entry.
UniProt P08581, residues 25-1390: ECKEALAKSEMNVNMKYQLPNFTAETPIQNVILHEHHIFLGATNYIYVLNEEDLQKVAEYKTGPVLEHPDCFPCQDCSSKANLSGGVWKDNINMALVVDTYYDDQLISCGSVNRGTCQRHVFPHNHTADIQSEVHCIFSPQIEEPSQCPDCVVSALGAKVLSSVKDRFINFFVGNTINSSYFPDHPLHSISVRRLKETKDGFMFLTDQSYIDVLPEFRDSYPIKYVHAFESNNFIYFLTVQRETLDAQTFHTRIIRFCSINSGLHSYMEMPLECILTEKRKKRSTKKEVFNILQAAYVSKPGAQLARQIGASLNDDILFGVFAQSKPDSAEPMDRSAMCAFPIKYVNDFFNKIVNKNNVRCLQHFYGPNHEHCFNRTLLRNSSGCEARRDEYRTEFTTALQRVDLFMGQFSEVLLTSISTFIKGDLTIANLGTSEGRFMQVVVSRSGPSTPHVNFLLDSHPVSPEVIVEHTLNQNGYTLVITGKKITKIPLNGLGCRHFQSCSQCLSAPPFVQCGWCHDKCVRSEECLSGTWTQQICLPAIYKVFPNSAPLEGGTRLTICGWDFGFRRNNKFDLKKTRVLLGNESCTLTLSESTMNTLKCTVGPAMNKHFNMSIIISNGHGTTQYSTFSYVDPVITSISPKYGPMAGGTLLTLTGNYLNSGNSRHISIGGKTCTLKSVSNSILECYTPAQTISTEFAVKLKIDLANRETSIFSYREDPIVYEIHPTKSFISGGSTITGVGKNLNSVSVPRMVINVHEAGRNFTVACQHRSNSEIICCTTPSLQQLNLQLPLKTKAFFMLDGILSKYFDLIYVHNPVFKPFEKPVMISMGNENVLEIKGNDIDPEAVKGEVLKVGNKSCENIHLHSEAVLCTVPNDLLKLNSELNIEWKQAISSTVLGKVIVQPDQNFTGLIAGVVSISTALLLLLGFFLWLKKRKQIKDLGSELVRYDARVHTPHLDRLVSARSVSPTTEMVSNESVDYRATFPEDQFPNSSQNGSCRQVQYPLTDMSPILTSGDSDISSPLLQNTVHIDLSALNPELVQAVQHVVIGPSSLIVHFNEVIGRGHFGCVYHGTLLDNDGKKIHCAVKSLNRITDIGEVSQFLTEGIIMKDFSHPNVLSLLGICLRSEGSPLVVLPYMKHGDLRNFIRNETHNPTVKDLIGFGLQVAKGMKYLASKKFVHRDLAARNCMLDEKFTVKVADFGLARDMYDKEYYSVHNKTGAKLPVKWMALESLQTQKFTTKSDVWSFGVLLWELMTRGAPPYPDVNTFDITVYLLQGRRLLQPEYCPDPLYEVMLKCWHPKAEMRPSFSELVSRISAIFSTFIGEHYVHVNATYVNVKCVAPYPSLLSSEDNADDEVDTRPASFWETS
UniProt P14210, residues 32-728: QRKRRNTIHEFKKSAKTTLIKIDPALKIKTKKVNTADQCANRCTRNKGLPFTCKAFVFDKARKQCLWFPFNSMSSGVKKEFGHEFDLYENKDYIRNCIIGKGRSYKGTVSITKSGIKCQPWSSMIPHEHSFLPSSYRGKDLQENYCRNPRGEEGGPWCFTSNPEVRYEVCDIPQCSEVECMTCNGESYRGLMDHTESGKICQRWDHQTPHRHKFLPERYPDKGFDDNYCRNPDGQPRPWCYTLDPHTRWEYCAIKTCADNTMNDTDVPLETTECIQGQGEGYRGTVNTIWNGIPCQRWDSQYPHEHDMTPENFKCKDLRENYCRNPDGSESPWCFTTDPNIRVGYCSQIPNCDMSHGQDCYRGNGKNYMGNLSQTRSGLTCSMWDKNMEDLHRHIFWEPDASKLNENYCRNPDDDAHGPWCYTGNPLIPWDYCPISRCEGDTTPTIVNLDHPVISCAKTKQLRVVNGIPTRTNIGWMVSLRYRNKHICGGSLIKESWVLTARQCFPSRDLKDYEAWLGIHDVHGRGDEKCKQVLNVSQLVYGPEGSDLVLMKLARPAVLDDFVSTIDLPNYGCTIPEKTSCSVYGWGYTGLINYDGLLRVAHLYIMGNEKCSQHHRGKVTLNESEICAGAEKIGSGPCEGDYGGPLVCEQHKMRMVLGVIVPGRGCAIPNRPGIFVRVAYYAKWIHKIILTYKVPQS

These are yes or no findings as the source states them, for the method shown. In cells and extracts the contact can be indirect. Some binding calls cover weakened binding; strength is not graded here.

For this experiment, the target named is c-MET (human (endogenous in MDA-MB-361)) (UniProt P08581). The experiment in a line: co-IP; whole-cell lysates of MDA-MB-361 cells; 5 ug primary or anti-IgG antibody overnight at 4 C; protein G Dynabeads; washed three times with 150 mM NaCl, 20 mM Tris pH 8.0, 1% NP-40; SDS-PAGE immunoblotting. In general terms: A western blot detects proteins with antibodies after separation by electrophoresis.

For the molecule “hepatocyte growth factor (from UniProt P14210 32-728) (ligand)”, the binding entry was “binds”.

B1: Trefoil factor 3 (protein, UniProt Q07654 22-80)
chain: EEYVGLSANQCAVPAKDRVDCGYPHVTPKECNNRGCCFDSRIPGVPWCFKPLQEAECTF
Consider B1, for which the binding entry is recorded as “no binding”.
